Results as given in the supplement of paper PMC10849652.
This is one part of the list.

Chains of the proteins cited; added tags and fusions are not shown. Lines headed by an entry give the natural chain unless they say otherwise; changes in a name come on top.
UniProt Q8IX01: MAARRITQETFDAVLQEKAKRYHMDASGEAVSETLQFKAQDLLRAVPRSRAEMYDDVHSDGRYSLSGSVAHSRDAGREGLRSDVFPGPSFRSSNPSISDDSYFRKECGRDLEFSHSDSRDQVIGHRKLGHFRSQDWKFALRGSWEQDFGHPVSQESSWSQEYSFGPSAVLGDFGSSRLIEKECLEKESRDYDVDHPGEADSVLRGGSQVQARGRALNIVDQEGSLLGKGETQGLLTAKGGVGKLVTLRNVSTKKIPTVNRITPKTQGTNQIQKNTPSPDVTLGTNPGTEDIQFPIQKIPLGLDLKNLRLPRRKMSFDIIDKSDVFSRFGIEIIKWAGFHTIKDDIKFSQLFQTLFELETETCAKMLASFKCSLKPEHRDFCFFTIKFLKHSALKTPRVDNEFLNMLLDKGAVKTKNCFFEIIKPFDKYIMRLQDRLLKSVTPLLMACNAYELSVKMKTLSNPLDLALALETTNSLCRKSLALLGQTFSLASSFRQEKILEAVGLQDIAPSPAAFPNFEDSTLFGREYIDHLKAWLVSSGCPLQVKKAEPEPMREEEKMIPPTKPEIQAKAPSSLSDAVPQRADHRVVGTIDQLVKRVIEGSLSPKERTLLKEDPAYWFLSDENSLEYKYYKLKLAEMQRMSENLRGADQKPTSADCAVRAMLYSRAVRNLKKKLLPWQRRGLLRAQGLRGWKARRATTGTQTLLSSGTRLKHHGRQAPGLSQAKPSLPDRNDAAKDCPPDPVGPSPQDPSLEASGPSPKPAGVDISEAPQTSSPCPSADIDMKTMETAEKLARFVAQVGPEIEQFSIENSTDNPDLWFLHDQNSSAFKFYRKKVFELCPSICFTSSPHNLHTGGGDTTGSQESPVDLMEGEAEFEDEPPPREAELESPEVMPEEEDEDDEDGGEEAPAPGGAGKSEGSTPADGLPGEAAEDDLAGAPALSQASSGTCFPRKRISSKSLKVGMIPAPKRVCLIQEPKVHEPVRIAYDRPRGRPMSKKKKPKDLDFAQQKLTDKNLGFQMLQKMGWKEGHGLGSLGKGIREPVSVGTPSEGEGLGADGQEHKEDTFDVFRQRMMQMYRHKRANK
UniProt Q9H6P5: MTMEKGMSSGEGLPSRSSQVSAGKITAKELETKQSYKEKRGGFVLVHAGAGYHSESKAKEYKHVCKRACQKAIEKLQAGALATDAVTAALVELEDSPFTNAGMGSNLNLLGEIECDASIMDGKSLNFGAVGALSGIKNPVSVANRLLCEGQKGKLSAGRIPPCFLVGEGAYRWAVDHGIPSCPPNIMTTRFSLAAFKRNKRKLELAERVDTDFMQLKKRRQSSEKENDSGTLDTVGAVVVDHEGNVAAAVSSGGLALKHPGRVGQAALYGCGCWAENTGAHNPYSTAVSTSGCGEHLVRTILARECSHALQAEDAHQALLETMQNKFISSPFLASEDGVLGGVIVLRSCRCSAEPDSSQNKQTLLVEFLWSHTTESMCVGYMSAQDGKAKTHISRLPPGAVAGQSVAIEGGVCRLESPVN
UniProt Q9BXI6: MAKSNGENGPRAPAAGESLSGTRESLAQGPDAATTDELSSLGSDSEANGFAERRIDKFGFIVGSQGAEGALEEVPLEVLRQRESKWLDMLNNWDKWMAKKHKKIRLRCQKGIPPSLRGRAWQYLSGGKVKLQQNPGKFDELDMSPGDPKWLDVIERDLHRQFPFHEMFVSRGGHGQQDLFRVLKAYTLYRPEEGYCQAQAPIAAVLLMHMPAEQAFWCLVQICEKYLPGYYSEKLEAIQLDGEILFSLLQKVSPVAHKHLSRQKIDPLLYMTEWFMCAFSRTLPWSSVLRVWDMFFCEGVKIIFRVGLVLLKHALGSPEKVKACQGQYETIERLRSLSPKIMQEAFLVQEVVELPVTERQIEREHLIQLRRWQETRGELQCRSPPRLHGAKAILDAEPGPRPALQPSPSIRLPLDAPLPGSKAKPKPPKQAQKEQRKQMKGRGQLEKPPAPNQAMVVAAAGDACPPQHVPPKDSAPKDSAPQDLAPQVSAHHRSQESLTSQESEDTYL
UniProt Q1ZZU3: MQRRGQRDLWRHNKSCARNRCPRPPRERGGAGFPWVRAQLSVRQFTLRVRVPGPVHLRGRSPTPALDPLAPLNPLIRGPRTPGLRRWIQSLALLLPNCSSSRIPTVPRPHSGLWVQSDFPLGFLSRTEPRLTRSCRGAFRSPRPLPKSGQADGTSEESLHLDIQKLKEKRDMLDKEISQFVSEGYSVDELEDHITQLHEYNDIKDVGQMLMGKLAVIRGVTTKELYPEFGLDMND
UniProt O60347: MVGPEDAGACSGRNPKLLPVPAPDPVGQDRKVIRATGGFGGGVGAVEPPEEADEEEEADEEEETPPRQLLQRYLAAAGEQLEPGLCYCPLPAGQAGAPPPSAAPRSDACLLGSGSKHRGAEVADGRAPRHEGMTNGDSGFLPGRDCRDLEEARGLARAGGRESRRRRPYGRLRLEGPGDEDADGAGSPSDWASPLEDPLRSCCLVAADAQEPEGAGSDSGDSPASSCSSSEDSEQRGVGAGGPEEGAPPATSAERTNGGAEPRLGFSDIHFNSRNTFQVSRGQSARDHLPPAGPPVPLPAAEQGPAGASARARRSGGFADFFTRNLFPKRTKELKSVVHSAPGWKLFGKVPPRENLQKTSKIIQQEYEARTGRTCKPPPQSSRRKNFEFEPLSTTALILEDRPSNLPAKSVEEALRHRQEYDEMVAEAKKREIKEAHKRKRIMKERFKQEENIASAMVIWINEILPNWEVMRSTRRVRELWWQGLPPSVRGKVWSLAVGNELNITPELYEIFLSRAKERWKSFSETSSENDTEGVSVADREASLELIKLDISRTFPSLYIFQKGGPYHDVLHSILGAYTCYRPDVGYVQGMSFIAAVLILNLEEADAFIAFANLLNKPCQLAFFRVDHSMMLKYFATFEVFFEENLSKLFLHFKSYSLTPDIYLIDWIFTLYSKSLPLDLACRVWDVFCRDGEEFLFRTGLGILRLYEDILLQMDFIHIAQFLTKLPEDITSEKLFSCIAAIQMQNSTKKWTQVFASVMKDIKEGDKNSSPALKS
UniProt Q9UMX1: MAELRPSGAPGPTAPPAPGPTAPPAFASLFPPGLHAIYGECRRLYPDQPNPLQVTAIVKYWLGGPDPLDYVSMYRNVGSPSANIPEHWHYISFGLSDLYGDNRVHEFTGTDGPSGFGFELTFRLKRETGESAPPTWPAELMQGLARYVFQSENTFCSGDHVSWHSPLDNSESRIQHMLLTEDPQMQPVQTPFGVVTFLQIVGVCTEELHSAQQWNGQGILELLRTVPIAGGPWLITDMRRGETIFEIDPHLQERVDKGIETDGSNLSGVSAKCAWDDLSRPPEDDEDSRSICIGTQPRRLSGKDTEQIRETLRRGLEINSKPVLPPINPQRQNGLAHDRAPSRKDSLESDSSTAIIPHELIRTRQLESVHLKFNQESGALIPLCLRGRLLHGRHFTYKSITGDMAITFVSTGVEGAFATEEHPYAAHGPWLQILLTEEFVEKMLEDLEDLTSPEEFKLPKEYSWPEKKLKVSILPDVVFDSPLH
UniProt Q16514: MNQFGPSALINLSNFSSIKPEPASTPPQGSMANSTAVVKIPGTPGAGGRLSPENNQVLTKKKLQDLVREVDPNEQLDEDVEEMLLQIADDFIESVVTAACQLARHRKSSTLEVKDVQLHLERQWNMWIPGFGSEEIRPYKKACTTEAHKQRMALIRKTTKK
UniProt Q15542, whole entry, looked up: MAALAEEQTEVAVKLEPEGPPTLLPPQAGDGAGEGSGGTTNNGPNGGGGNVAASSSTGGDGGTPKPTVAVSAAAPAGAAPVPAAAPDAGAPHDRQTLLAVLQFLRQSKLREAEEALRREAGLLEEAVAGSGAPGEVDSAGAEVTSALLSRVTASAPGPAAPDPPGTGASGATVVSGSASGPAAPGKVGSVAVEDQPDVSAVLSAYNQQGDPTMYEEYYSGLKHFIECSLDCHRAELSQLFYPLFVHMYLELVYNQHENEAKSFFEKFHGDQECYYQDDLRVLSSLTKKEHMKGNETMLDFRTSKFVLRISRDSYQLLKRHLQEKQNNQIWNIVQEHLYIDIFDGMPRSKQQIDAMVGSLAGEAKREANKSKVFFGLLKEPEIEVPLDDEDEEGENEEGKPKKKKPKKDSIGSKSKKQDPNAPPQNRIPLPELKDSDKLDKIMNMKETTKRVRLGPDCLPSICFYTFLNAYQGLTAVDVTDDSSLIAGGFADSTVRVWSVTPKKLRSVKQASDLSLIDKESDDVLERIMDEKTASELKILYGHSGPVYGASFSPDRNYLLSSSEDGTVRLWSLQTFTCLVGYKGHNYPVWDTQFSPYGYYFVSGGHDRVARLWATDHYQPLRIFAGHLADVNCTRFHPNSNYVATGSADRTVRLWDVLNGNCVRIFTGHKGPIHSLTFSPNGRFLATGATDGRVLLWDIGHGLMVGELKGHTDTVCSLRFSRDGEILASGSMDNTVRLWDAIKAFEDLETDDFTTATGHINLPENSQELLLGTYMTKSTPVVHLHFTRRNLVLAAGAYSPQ
UniProt Q8N2H4: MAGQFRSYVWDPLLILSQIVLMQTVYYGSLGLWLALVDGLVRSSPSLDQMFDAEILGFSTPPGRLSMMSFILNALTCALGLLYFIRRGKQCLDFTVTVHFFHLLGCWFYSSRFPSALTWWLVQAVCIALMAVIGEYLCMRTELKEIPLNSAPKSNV
UniProt Q9Y2Z0: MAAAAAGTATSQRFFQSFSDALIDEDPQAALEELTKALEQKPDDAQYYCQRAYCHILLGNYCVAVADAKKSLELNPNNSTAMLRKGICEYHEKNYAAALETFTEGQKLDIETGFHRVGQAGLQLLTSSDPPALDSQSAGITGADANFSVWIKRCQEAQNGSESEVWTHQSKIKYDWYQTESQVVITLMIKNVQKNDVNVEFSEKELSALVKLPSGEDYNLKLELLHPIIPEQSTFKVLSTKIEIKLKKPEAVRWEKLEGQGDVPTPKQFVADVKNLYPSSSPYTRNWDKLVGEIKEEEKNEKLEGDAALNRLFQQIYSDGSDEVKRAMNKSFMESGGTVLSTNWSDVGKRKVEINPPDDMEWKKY
UniProt Q8TDR2: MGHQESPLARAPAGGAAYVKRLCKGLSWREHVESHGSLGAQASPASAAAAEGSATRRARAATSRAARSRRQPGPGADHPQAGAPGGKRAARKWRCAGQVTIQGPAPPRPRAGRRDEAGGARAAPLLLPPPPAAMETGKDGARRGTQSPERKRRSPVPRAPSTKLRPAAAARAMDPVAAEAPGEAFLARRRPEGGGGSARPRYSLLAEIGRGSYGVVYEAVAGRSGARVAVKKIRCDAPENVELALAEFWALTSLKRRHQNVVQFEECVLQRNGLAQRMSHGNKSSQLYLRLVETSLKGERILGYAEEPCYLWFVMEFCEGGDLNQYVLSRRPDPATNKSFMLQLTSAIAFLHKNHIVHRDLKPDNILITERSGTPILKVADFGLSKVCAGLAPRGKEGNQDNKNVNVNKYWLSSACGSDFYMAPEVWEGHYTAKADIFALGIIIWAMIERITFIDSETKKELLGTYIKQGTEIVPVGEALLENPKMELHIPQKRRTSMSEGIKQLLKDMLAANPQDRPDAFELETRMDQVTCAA
UniProt Q9UI15: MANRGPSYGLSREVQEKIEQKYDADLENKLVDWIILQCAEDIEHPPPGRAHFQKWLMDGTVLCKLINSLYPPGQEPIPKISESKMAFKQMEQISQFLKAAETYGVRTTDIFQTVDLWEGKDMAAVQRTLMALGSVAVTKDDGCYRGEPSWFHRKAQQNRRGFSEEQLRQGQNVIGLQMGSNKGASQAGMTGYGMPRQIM
UniProt Q6ZWJ1: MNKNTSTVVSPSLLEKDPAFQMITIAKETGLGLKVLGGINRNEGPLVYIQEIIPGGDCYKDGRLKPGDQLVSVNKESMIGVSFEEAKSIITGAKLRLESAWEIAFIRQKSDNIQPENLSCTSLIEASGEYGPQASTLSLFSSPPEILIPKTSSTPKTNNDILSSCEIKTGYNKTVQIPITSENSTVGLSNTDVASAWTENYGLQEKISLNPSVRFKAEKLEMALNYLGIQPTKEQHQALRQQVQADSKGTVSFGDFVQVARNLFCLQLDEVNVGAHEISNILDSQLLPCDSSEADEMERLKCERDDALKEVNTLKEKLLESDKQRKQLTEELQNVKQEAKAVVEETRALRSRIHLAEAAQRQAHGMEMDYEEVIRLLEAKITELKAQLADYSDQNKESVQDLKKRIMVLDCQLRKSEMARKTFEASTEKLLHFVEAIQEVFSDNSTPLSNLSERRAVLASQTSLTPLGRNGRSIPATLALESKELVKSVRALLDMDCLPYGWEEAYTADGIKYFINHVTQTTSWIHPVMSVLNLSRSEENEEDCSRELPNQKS
UniProt P08247, whole entry, looked up: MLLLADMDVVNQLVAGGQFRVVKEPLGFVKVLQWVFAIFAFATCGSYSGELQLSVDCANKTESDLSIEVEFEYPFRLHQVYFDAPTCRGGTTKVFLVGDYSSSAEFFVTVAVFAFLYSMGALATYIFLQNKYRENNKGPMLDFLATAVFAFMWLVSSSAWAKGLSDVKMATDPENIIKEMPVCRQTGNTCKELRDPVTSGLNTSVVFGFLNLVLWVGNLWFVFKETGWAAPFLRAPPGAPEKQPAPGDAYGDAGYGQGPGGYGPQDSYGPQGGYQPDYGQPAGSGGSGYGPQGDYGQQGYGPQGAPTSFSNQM

Assays:
Experiment in all cases: log2 fold change, soluble protein after heating vs DMSO (PISA); higher = thermal stabilisation; K562 cells, 10 uM, 30 min; active = over 0.2 and 3.5 SD of the protein, either way, in both replicates (recomputed)
[1] = compound: CC1=C(C=C(C=C1)NC(=O)C2=CC(=CC=C2)C(C)(C)C#N)NC3=CC4=C(C=C3)N=CN(C4=O)C
In short: (§1)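 Quantification of soluble protein used TMTpro 16plex LC-MS/MS, with channel sums equalised. Samples were the supernatant after 21,000xg for 90 min of pooled aliquots from K562 cells (2×10^6 cells/mL) treated with 10 μM compound for 30 min, heated for 3 min over 48°C-58°C, and extracted in PBS with 0.5% NP-40 at 4°C. Values, from duplicates, describe thermal stability against control samples on a log2 fold-change scale.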

Nexturastat A = compound: CCCCN(Cc1ccc(C(=O)NO)cc1)C(=O)Nc1ccccc1 [Nexturastat A]
In short: as §1

[2] = compound: CCCc1cc(C)[nH]c(=O)c1CNC(=O)c1cc(-c2ccnc(N3CCN(C)CC3)c2)cc2c1cnn2C(C)C
In short: as §1

givinostat = compound: CCN(CC)Cc1ccc2cc(COC(=O)Nc3ccc(C(=O)NO)cc3)ccc2c1 [givinostat]
In short: as §1

[3] = compound: CC1=C(C=C(C=C1)NC(=O)C2=CC(=CC=C2)N(C)C)NC(=O)C3=CC=C(C=C3)O
In short: as §1

[4] = compound: CC1=CC=C(C=C1)SC2=C3C=C(SC3=CN=C2)C(=O)N
In short: as §1

[5] = compound: CC1=NC(=CC=C1)C2=C(N=C(N2)C(C)(C)C)C3=CC4=NC=CN=C4C=C3
In short: as §1

vemurafenib = compound: CCCS(=O)(=O)Nc1ccc(F)c(C(=O)c2c[nH]c3ncc(-c4ccc(Cl)cc4)cc23)c1F [vemurafenib]
In short: as §1

[6] = compound: CCCS(=O)(=O)Nc1ccc(F)c(C(=O)c2c[nH]c3ncc(Cl)cc23)c1F
In short: as §1

barasertib = compound: CCN(CCCOc1ccc2c(Nc3cc(CC(=O)Nc4cccc(F)c4)[nH]n3)ncnc2c1)CCOP(=O)(O)O [barasertib]
In short: as §1

Measured: log2 fold change

SUGP2 (UniProt Q8IX01)
inactive: [1] -0.27 | Nexturastat A 0.279

TASP1 (UniProt Q9H6P5)
inactive: Nexturastat A 0.672 | [2] -0.09 | givinostat -0.205

TACC3 (UniProt C9JWI7)
inactive: [3] 0.023

SUPT3H isoform 4 (UniProt O75486)
inactive: [3] -0.247

SUSD1 isoform 2 (UniProt Q6UWL2)
inactive: [4] 0.105 | [5] -0.097 | vemurafenib -0.004 | [6] -0.102 | givinostat 0.033 | barasertib 0.023

TBC1D10A (UniProt Q9BXI6)
inactive: [3] -0.05 | [4] -0.103 | [5] -0.093 | Nexturastat A 0.07 | vemurafenib 0.139 | [6] -0.054 | barasertib 0.229

STK40 isoform 4 (UniProt Q8N2I9)
inactive: [4] -0.02 | [6] 0.05

STOML1 (UniProt Q9UBI4)
inactive: [3] 0.163 | vemurafenib -0.017

TATDN1 isoform 2 (UniProt Q6P1N9)
inactive: [3] 0.056 | [4] 0.232 | [6] -0.224 | givinostat 0.112

TAGLN (UniProt Q01995)
inactive: [1] -0.342 | [4] 0.292 | [5] 0.142 | [6] -0.427 | givinostat 0.103 | barasertib 0.042

SYK (UniProt P43405)
inactive: [3] 0.015 | [4] -0.025 | [5] -0.386 | vemurafenib -0.097 | [6] -0.058 | givinostat 0.307 | barasertib -0.094
active: Nexturastat A 0.901

STON2 isoform 3 (UniProt Q8WXE9)
inactive: [3] 0.02 | [5] 0.051

SULT1E1 (UniProt P49888)
inactive: givinostat -0.027 | barasertib 0.037

SWI5 (UniProt Q1ZZU3)
inactive: [1] -0.118 | [4] 0.055 | [5] -0.128 | Nexturastat A -0.015 | vemurafenib 0.042 | [6] 0.02 | givinostat 0.005 | barasertib -0.016

TATDN2 (UniProt Q93075)
inactive: [1] -0.256 | [4] 0.048 | [5] -0.07 | Nexturastat A 0.092 | vemurafenib 0.168 | [6] 0.019 | givinostat -0.004 | barasertib 0.126

TAZ (UniProt Q16635)
inactive: [3] 0.031 | [4] 0.068 | [6] -0.173

TBC1D12 (UniProt O60347)
inactive: [4] 0.055 | Nexturastat A 0.177 | vemurafenib 0.072 | [6] 0.016 | [2] 0 | givinostat -0.034

STS (UniProt P08842)
inactive: [4] 0.368 | [6] -0.241 | barasertib 0.159

SUPT5H isoform 2 (UniProt O00267)
inactive: vemurafenib 0.232

TAF9B (UniProt Q9HBM6)
inactive: [1] -0.102 | [4] -0.028 | [5] -0.127 | Nexturastat A 0.068 | vemurafenib 0.088 | [6] -0.028 | [2] -0.042 | givinostat -0.065 | barasertib -0.055

SUFU (UniProt Q9UMX1)
inactive: givinostat -0.024 | barasertib -0.072

STK36 (UniProt Q9NRP7)
inactive: [3] -0.027 | [4] -0.07 | [6] -0.117 | [2] -0.516 | givinostat -0.077 | barasertib 0.078

SUPT7L (UniProt O94864)
inactive: [3] -0.101 | [5] 0.055 | [2] 0.092 | givinostat -0.142 | barasertib 0.232

SUZ12 (UniProt Q15022)
inactive: [3] 0.021 | [4] 0.054 | [5] -0.156 | [6] -0.015 | [2] 0.23

TAOK2 (UniProt Q9UL54)
inactive: [3] 0.024 | [4] 0.062 | [5] 0.08 | [6] 0.051 | [2] 0.007 | givinostat -0.363
active: Nexturastat A 0.487

TADA1 (UniProt Q96BN2)
inactive: [4] 0.05 | [6] -0.012 | givinostat 0.206

TAF12 (UniProt Q16514)
inactive: [1] -0.099 | [4] -0.045 | [5] -0.072 | vemurafenib -0.027 | [6] -0.015 | [2] 0.041 | givinostat 0.018 | barasertib 0.035

TAF5 (UniProt Q15542)
inactive: [3] -0.048 | [5] -0.318 | Nexturastat A 0.029 | vemurafenib 0.146 | givinostat -0.229

SYS1 (UniProt Q8N2H4)
inactive: [3] 0.16 | [4] -0.061 | [6] -0.008 | givinostat -0.069

TAF5L (UniProt O75529)
inactive: barasertib 0.086

STRN3 isoform 2 (UniProt Q13033)
inactive: [4] 0.011 | [5] -0.078 | Nexturastat A -0.118 | vemurafenib -0.048 | [6] -0.115 | [2] -0.087 | givinostat -0.135 | barasertib -0.035

SUGT1 isoform 2 (UniProt Q9Y2Z0)
inactive: [3] -0.019 | [4] 0.052 | [5] 0.009 | vemurafenib -0.034 | [6] -0.071 | [2] 0.102 | givinostat -0.365 | barasertib 0.083

STK35 (UniProt Q8TDR2)
inactive: [3] -0.121 | [4] -0.108 | [6] -0.234 | [2] 0.046

Two entries picked at random from the list so far, as already listed:
SUGP2 (UniProt Q8IX01)
inactive: [1] -0.27 | Nexturastat A 0.279

SUGT1 isoform 2 (UniProt Q9Y2Z0)
inactive: [3] -0.019 | [4] 0.052 | [5] 0.009 | vemurafenib -0.034 | [6] -0.071 | [2] 0.102 | givinostat -0.365 | barasertib 0.083

(list continues)

TAGLN3 (UniProt Q9UI15)
inactive: [1] -0.02 | [5] -0.036 | Nexturastat A -0.036 | vemurafenib -0.117 | [2] 0.038 | barasertib 0.014

STXBP5L (UniProt Q9Y2K9)
inactive: [1] 0.136 | [4] -0.102 | [5] 0.136 | [6] 0.056 | givinostat -0.003

TASOR (UniProt Q9UK61)
inactive: [3] 0.087

STXBP4 (UniProt Q6ZWJ1)
inactive: [5] -0.035 | Nexturastat A 0.108 | vemurafenib -0.106

SYP (UniProt P08247)
inactive: [3] 0.025 | [4] -0.017 | [5] -0.064 | Nexturastat A 0.004 | vemurafenib 0.106 | [6] -0.095 | [2] -0.13 | givinostat -0.05 | barasertib -0.009

STYX (UniProt Q8WUJ0)
inactive: [3] -0.232 | givinostat 0.082
